PubChem BioAssay AID652259 | Drosophila RNAi Screening Center | 2013

Assay: 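Knock-downs that push a Wingless-driven reporter up or down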 (primary screen)
Cells: Drosophila clone 8 imaginal disc epithelial cells
Knock-down reagent: long dsRNA against Drosophila genes
Challenge: pathway stimulated by co-transfected Wingless expression plasmid
Measured: 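Firefly luciferase from a tcf-site Wingless reporter, measured alongside co-transfected Renilla luciferase that tracks transfection; pathway stimulated by a Wingless plasmid; the firefly-to-Renilla ratio is not deposited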
Reading the numbers: firefly reporter light: higher = more Wg reporter light, before normalisation; Renilla control light: higher = more transfected or surviving cells
Active means: 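Strong candidates differ from their plate mean by at least two out of four per-plate statistical tests; weak candidates meet just one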
Meaning of the calls: active = candidate regulator (raises or lowers reporter); inactive = not a candidate
In all, the deposit lists about 22,000 reagents; below is a random part of those that have a named target and a result. In the full data, 233 (1.1%) got an active call. 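Light values are raw, unnormalised plate reads; the ratio scores behind the reporter calls were not deposited.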 A plus sign joins genes that one reagent is predicted to hit. Not stated in the record: the amount of reagent, the time to read-out, the dose of the treatment.

no.	gene	DRSC id	firefly reporter light, replicate 1	firefly reporter light, replicate 2	Renilla control light, replicate 1	Renilla control light, replicate 2	outcome
1	CG30389	DRSC04077	10620		1834		inactive
2	CG30389	DRSC04452	2244	6903	903	2633	inactive
3	flr (flare)	DRSC09787	5722		2345		inactive
4	Lip4 (Lipase 4)	DRSC02930	1932	7200	656	3760	inactive
5	Torsin	DRSC18570	3731	3351	1155	987	inactive
6	CG2082	DRSC12125	8832		3336		inactive
7	dve (defective proventriculus)	DRSC04680	2692	9448	726	3689	inactive
8	Ugt35B1 (UDP-glycosyltransferase family 35 member B1)	DRSC16893	8827		2736		inactive
9	CG32176	DRSC10057	6296		3122		inactive
10	CG32176	DRSC10058	7947		2869		inactive
11	c12.1	DRSC18750	30992		7402		inactive
12	mio (missing oocyte)	DRSC00692	12538		3772		inactive
13	mio (missing oocyte)	DRSC22056	5.10e5	5.23e5	1.97e5	1.76e5	inactive
14	CG10413	DRSC02052	15618		5639		inactive
15	CG4853	DRSC06898	18234		5296		inactive
16	CG10226	DRSC09715	4459		1978		inactive
17	galla-2	DRSC10936	7600		4416		inactive
18	galla-2	DRSC21949	5.30e5	5.34e5	2.19e5	2.20e5	inactive
19	CG10919	DRSC14283	17760		4813		inactive
20	Ipp (Inositol polyphosphate 1-phosphatase)	DRSC16718	16505		1777		inactive
21	CG1146	DRSC08189	12128		3604		inactive
22	Sidpn (similar to Deadpan)	DRSC02056	13564		2441		inactive
23	tio (tiptop)	DRSC03739	2300	3724	556	1673	inactive
24	CG18477 + CG31780	DRSC01955	4417	3968	1178	2401	inactive
25	ArfGAP3 (ADP-ribosylation factor GTPase activating protein 3)	DRSC11794	9545		3010		inactive
26	CG15554	DRSC15092	5702		2838		inactive
27	CG8641	DRSC11028	2633	9542	1898	3623	inactive
28	CG18809	DRSC19818	8523		6905		inactive
29	Mrp4 (Multidrug resistance protein 4)	DRSC14931	21696		3786		inactive

In a second layout: results already given
{"gene": "CG32176", "DRSC id": "DRSC10057", "firefly reporter light, replicate 1": 6296, "Renilla control light, replicate 1": 3122, "outcome": "inactive"}
{"gene": "CG32176", "DRSC id": "DRSC10058", "firefly reporter light, replicate 1": 7947, "Renilla control light, replicate 1": 2869, "outcome": "inactive"}
{"gene": "c12.1", "DRSC id": "DRSC18750", "firefly reporter light, replicate 1": 30992, "Renilla control light, replicate 1": 7402, "outcome": "inactive"}
